Consider 1 molecule from PMC4866751, “Bacillus licheniformis Contains Two More PerR-Like Proteins in Addition to PerR, Fur, and Zur Orthologues” (PLoS ONE, 2016).

The target in the assay is His-tagged PerR3 (BL00950) (Bacillus licheniformis ATCC14580) (UniProt Q65DD7). The assay can be described thus: SEC; Superdex 200 HiLoad 16/60 gel filtration, Chelex-100-treated buffer A (20 mM Tris-HCl, pH 8.0, 0.1 M NaCl, 5% glycerol); oligomeric state judged by elution profile in the last purification step; both purified.

These are yes or no findings as the source states them, for the method shown. Where a sequence is shown, tags or fusion partners need not be part of it.

B1: His-tagged PerR3 (BL00950) (protein, UniProt Q65DD7 1-138)
chain: MEDEQLVPLLKKRGLRITAQRVLILKTIASLGGHPSAEDIHRELPYMSLPTIYSNLKLFVKLGILKELSHGDAKSKYELFTSQHYHVICKSCGKIADLDYPHLKEVEHAAAQLTNFKVNSHFLGIYGICTTCQEQQQR
On to B1, for which the binding entry is “no binding”.
